In patent US20140157444A1:
These are yes or no findings as the source states them, for the method shown. In cells and extracts the contact can be indirect. Some entries that bind do so weakly or less than the wild type. For part of these data: Where a sequence is shown, tags or fusion partners need not be part of it.

Chains of the proteins cited; added tags and fusions are not shown.
UniProt O15379: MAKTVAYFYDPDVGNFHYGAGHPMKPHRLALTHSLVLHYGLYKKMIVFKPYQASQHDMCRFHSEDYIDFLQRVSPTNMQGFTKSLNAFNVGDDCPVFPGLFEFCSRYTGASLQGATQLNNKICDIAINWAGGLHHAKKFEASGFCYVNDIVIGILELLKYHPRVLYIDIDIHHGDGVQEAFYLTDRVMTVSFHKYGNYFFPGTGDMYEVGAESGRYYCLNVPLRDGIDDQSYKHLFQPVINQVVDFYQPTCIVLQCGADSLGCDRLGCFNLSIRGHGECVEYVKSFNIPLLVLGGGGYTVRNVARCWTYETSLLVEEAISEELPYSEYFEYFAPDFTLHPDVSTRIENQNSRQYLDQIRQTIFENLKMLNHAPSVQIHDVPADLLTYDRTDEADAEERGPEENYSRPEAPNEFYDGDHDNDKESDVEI
UniProt Q13547: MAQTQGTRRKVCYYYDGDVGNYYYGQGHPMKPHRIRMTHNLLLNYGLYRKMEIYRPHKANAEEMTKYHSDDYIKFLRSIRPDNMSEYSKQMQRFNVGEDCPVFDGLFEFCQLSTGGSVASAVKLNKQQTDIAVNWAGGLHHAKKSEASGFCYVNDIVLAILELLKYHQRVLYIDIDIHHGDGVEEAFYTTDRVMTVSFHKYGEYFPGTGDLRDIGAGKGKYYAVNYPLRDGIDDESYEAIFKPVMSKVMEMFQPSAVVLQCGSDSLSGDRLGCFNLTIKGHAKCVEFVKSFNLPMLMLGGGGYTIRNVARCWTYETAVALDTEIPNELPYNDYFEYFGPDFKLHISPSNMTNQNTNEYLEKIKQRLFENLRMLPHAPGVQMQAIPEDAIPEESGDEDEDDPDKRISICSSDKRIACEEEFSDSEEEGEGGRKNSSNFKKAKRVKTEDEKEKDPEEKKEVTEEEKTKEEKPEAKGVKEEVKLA
UniProt Q8C2B3: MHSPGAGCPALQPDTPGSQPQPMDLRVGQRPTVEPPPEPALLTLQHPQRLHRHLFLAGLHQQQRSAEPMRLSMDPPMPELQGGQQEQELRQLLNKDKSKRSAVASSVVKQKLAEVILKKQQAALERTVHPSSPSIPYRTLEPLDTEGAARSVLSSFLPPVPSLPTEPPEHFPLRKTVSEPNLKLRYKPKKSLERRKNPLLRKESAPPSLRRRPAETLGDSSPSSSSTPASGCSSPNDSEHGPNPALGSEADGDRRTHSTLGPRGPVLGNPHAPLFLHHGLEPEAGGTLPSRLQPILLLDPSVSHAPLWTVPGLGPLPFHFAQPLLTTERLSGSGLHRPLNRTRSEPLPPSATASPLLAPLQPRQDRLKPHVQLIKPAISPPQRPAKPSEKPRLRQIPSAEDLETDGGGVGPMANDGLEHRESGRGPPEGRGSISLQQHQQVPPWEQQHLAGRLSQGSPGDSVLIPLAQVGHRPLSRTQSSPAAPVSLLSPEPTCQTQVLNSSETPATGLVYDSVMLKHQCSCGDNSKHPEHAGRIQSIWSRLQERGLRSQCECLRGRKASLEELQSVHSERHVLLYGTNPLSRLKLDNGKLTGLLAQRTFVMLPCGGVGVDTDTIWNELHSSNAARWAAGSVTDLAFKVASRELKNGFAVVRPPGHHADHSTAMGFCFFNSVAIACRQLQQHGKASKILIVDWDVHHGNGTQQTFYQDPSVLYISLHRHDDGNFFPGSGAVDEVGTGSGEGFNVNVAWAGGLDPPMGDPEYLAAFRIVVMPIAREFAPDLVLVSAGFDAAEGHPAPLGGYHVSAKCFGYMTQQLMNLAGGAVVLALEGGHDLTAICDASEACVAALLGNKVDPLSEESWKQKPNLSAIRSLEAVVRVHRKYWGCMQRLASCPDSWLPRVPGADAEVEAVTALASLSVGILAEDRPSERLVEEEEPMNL
UniProt O08537: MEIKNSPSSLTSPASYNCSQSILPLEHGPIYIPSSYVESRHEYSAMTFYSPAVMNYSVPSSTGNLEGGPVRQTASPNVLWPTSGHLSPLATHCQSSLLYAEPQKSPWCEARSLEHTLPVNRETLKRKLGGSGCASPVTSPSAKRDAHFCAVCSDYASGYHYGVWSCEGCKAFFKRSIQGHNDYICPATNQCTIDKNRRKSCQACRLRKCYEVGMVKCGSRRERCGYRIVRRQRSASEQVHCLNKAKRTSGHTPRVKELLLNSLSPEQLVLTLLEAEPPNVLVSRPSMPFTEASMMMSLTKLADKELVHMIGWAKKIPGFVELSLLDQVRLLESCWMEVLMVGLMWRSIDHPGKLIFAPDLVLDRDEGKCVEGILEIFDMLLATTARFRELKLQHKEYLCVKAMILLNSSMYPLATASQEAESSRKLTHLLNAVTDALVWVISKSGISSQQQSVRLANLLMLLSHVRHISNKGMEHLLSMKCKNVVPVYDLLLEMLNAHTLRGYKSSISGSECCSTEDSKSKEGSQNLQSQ
UniProt P03372: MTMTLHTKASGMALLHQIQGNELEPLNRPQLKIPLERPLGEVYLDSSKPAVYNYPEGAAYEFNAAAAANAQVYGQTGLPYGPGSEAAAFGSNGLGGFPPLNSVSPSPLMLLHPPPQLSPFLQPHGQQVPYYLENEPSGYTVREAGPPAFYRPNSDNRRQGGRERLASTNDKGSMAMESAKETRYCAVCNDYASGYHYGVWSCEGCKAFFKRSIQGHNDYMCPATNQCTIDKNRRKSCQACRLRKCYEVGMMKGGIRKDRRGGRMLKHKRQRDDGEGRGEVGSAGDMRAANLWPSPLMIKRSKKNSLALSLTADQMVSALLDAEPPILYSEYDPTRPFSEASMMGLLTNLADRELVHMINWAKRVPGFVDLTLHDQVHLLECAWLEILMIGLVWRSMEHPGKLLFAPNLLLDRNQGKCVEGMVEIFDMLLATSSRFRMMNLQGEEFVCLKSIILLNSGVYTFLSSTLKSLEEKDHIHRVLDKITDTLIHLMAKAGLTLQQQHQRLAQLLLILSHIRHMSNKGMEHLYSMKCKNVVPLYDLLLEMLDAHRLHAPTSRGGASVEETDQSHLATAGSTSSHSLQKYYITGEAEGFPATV
UniProt Q91V09: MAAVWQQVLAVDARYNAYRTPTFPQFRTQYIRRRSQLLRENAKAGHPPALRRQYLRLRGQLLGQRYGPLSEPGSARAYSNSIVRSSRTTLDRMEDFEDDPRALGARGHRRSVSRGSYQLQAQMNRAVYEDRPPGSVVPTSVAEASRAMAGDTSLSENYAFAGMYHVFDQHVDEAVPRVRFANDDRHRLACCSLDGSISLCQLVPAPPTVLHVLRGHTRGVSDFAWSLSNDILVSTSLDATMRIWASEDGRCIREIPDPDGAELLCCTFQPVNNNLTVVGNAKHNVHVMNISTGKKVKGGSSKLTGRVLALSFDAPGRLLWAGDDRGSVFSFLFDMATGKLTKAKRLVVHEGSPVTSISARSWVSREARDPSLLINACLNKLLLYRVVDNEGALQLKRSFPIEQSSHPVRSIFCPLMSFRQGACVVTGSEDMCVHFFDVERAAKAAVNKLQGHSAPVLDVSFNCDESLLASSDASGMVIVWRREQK

Columns and labels:
hHDAC3-FLAG (human) [1] = target: hHDAC3-FLAG (human) (UniProt O15379); assay: co-immunoprecipitation, HEK 293 cells
hHDAC1-FLAG (human) [2] = target: hHDAC1-FLAG (human) (UniProt Q13547); assay: co-immunoprecipitation, HEK 293 cells
mHDAC7-FLAG (mouse) [3] = target: mHDAC7-FLAG (mouse) (UniProt Q8C2B3); assay: co-immunoprecipitation, HEK 293 cells
hHDAC3-FLAG (human) [4] = target: hHDAC3-FLAG (human) (UniProt O15379); assay: co-immunoprecipitation from co-transfected HEK 293 cells: anti-FLAG IP, anti-Myc blot
hHDAC1-FLAG (human) [5] = target: hHDAC1-FLAG (human) (UniProt Q13547); assay: as above
mHDAC7-FLAG (mouse) [6] = target: mHDAC7-FLAG (mouse) (UniProt Q8C2B3); assay: as above
[7] = target: PH-interacting protein (human) (UniProt Q8WWQ0); assay: anti-FLAG immunoprecipitation of FLAG-WDR13 from HeLa cells, LC-MS/MS of the eluate
[8] = target: T1, Histone deacetylase 7a (HDA7a) (human) (UniProt Q8WUI4); assay: as above
T1 sequence (looked up): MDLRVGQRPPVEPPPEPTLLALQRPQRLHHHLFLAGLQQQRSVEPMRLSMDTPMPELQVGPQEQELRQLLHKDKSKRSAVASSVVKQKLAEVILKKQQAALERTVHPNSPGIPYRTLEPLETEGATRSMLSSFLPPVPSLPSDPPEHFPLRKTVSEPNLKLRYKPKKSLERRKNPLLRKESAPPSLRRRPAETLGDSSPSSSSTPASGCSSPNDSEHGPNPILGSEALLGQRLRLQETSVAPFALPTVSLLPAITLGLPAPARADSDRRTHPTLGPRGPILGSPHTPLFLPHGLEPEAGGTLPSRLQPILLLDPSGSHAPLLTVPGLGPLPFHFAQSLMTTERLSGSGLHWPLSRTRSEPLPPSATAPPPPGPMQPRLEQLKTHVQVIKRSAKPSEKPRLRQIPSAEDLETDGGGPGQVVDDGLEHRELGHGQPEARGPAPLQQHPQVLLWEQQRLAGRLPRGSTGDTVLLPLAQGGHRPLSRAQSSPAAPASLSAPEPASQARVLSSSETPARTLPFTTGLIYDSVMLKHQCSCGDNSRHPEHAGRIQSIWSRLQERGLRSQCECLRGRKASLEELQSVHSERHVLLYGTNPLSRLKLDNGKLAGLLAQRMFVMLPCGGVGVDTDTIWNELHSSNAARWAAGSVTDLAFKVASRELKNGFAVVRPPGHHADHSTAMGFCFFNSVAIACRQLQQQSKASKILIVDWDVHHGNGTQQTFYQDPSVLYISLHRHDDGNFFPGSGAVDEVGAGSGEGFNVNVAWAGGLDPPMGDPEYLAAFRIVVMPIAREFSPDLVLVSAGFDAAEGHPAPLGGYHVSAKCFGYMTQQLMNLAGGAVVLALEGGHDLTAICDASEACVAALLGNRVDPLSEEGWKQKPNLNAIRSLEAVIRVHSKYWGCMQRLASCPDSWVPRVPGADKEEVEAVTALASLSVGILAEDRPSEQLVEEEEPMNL

[9] = target: Myc-tagged estrogen receptor beta (UniProt O08537); assay: co-immunoprecipitation, HEK 293 cells
[10] = target: Myc PHIP1 (Pleckstrin homology domain interacting protein1) fusion protein (UniProt Q8VDD9); assay: co-immunoprecipitation, HEK 293 cells
GFP-ERα (human) [11] = target: GFP-ERα (human) (UniProt P03372); assay: co-immunoprecipitation, HEK 293 cells
[12] = target: PH-interacting protein (human) (UniProt Q8WWQ0); assay: anti-FLAG immunoprecipitation of FLAG-WDR13 from HeLa cells, LC-MS/MS
[13] = target: T1, Histone deacetylase 7a (HDA7a) (human); assay: as above
GFP-ERα (human) [14] = target: GFP-ERα (human) (UniProt P03372); assay: co-immunoprecipitation from co-transfected HEK 293 cells with or without estradiol: anti-FLAG IP, anti-GFP blot
[15] = target: Myc-tagged estrogen receptor beta (UniProt O08537); assay: co-immunoprecipitation, HEK 293 cells, with or without estradiol
GFP-ERα (human) [16] = target: GFP-ERα (human) (UniProt P03372); assay: as above
[17] = target: Myc-tagged estrogen receptor beta (UniProt O08537); assay: co-immunoprecipitation from co-transfected HEK 293 cells with or without estradiol: anti-FLAG IP, anti-Myc blot
[18] = target: Myc PHIP1 (Pleckstrin homology domain interacting protein1) fusion protein (UniProt Q8VDD9); assay: co-immunoprecipitation from co-transfected HEK 293 cells: anti-FLAG IP, anti-Myc blot

Measured: binding

Myc WDR13 fusion protein (from UniProt Q91V09 1-485)
binds: hHDAC3-FLAG (human) [1] | hHDAC1-FLAG (human) [2] | mHDAC7-FLAG (mouse) [3] | hHDAC3-FLAG (human) [4] | hHDAC1-FLAG (human) [5] | mHDAC7-FLAG (mouse) [6]

FLAG-WDR13 fusion protein (from UniProt Q91V09 1-485)
not listed: hHDAC3-FLAG (human) [1] | hHDAC1-FLAG (human) [2] | mHDAC7-FLAG (mouse) [3] | hHDAC3-FLAG (human) [4] | hHDAC1-FLAG (human) [5] | mHDAC7-FLAG (mouse) [6]
binds: all other assays above
